In paper PMC8140133 one finds binding data, which are given here for three substances.

The chains behind the UniProt entries cited, without tags or fusion partners. Where a name states a change or a piece, a line headed by the entry shows the natural chain unless it says otherwise.
UniProt Q8TD26: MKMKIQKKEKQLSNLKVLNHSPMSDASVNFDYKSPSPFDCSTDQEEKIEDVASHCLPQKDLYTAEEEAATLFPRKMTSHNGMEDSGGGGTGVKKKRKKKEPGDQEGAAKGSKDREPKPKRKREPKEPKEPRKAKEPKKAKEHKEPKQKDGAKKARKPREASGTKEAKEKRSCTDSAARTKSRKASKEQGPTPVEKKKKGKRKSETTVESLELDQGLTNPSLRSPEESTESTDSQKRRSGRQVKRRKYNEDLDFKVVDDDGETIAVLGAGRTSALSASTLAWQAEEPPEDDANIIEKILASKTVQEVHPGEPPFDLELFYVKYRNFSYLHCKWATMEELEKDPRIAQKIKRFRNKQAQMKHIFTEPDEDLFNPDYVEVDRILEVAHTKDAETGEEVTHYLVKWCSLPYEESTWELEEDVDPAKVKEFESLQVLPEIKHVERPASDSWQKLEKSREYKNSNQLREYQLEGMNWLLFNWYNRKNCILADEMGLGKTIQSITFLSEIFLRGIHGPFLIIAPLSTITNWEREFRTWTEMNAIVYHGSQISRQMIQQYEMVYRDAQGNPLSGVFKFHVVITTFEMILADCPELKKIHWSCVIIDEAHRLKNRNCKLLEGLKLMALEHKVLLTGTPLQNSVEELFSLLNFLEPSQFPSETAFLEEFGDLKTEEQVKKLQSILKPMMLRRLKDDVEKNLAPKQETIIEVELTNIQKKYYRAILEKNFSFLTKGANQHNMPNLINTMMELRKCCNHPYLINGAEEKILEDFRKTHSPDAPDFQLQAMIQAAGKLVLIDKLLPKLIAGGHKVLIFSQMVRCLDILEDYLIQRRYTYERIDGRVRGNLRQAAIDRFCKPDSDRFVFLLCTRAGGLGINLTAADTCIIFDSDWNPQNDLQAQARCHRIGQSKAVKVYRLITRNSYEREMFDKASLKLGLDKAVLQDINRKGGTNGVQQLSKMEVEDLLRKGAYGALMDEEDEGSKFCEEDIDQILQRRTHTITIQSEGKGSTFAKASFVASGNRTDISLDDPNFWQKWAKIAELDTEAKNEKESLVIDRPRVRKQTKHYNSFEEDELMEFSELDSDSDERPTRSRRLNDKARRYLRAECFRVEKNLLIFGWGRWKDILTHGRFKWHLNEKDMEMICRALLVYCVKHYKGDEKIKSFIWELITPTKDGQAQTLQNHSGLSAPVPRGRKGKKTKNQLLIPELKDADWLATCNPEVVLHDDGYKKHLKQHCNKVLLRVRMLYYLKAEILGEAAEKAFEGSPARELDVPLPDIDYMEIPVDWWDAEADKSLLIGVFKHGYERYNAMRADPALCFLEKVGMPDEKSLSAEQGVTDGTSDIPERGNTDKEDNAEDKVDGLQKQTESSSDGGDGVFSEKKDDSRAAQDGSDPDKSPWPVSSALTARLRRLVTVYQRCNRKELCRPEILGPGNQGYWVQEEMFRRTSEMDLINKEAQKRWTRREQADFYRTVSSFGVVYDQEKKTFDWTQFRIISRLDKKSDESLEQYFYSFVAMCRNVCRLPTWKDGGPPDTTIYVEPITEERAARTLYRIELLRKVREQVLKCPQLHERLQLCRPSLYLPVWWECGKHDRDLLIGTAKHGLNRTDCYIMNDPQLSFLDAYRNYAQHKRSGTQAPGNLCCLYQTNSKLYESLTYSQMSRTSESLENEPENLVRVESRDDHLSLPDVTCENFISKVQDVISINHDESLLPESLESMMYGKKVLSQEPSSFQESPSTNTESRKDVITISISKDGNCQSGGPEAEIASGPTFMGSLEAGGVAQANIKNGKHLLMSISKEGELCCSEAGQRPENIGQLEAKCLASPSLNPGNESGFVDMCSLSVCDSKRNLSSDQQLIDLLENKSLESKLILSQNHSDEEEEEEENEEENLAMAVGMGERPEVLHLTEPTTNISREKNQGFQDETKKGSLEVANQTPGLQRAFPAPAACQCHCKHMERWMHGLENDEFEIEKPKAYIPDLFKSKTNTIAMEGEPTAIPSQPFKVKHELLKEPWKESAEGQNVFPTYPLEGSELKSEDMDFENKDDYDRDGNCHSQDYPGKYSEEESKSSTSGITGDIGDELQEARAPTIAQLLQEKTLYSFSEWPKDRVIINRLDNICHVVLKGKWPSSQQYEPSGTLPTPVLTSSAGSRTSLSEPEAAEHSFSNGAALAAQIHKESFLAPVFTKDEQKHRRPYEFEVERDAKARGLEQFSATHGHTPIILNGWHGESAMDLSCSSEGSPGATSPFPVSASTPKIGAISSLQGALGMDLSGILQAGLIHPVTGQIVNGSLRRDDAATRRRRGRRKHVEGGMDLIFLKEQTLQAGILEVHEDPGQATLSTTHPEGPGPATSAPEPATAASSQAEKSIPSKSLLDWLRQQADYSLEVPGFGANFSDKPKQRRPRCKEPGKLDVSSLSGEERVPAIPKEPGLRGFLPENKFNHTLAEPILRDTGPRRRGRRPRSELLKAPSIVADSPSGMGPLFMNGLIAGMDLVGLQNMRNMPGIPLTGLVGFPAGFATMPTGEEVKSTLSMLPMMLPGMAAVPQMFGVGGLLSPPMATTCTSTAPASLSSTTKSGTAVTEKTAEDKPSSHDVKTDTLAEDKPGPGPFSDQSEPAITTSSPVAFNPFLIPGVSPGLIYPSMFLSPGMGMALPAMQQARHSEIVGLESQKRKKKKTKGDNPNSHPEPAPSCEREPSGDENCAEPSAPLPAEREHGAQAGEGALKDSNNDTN
UniProt O96019: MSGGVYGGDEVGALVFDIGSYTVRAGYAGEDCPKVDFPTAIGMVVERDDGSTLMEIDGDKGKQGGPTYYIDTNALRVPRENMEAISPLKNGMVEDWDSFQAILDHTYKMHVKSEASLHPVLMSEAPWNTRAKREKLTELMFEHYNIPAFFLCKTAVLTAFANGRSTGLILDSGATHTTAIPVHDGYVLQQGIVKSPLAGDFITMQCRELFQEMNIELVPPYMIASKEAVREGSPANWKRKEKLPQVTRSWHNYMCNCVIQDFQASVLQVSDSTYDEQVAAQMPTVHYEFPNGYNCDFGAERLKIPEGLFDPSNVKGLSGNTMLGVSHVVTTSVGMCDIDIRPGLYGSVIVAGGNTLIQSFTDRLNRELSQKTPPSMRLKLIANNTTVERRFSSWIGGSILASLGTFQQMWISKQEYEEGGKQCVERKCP
UniProt P51532: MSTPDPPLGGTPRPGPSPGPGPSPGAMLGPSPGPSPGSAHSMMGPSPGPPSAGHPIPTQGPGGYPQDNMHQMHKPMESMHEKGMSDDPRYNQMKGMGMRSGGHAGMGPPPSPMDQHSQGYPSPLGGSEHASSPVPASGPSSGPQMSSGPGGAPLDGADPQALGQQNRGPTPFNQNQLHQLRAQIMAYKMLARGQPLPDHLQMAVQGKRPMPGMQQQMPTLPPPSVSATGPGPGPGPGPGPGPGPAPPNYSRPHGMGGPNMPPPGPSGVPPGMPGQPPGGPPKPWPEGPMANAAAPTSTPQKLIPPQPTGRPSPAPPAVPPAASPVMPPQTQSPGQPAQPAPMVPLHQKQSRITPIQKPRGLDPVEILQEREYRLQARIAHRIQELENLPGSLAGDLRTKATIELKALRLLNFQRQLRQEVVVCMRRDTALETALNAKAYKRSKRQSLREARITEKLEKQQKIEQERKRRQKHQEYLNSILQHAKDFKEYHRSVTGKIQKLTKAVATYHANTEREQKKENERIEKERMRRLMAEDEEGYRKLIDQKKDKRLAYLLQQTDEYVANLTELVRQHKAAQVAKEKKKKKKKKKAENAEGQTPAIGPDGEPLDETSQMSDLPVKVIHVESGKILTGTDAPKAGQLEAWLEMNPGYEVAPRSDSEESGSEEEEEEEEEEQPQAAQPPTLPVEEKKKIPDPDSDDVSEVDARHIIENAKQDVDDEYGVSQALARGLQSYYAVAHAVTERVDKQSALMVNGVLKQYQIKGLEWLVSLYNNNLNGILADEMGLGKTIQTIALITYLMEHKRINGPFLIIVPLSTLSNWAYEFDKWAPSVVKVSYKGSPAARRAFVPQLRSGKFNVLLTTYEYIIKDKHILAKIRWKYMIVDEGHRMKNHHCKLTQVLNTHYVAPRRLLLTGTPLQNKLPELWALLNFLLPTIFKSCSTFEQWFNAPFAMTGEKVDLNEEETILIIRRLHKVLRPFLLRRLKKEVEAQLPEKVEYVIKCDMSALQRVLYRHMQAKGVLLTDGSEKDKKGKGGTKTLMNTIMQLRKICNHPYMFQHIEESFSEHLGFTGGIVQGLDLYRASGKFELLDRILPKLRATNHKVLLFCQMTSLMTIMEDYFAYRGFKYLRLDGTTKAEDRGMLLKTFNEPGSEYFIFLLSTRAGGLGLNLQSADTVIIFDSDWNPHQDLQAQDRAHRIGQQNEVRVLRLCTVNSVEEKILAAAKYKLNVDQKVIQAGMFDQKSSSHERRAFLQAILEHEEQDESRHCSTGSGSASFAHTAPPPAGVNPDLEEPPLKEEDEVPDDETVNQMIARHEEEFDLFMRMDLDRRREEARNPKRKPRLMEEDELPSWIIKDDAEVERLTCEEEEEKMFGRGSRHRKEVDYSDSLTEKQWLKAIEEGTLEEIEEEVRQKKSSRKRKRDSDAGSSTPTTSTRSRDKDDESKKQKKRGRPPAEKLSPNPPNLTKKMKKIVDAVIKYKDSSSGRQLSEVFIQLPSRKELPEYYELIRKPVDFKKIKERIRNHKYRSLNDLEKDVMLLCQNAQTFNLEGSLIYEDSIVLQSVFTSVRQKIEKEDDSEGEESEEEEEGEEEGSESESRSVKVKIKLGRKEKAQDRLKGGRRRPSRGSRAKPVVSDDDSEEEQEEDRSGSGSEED
UniProt Q92922: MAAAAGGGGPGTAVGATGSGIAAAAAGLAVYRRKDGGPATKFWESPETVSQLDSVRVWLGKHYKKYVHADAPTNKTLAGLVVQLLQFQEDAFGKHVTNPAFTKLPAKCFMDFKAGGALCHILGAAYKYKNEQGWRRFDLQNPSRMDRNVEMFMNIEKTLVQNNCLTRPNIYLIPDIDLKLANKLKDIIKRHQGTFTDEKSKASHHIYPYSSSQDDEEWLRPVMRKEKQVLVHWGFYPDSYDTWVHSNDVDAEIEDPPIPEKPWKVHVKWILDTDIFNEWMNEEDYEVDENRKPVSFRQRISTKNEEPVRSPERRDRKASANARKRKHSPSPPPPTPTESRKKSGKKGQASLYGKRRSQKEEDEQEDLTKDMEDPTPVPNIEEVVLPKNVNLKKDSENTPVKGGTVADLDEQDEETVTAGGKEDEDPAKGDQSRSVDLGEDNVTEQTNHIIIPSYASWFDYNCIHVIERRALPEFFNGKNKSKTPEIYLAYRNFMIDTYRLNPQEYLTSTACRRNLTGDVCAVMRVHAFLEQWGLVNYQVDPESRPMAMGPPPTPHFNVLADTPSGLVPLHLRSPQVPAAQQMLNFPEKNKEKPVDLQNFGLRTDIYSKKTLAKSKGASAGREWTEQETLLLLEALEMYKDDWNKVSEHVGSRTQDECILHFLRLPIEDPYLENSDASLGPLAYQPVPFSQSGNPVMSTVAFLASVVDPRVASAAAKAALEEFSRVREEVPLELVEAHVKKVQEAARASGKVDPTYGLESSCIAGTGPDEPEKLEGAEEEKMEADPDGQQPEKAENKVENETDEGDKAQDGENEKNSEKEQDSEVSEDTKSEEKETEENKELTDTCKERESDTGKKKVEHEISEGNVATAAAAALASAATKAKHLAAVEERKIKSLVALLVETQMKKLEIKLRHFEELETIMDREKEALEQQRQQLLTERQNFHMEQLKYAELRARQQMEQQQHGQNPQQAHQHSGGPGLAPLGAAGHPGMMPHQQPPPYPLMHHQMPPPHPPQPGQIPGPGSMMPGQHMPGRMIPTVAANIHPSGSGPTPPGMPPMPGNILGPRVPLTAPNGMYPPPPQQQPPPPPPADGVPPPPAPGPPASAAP

The test addresses full-length wild-type HA-tagged CHD6 (human) (UniProt Q8TD26). Description: affinity purification with mass spectrometry; anti-HA immunoprecipitation of HA-tagged CHD6 from Benzonase-treated nuclear lysate (IP buffer: 150 mM LiCl, 50 mM Tris-HCl pH 7.5, 1 mM EDTA, 0.5% Empigen) of doxycycline-induced iPSCs, overnight at 4 °C; label-free quantitative MS; steady state, 2 h starvation or 1 h etoposide.

These are yes or no findings as the source states them, for the method shown. Binding seen in cells or lysates may run through a third protein. A yes stands for co-enrichment or nearness to the bait. Other partners may have been found.

Turning to “ACTL6A (BAF53) (from UniProt O96019 1-429)”, the binding entry is given as “binds”. As for “SMARCA4 (BRG1) (from UniProt P51532 1-1647)”, the binding entry was “binds”. “SMARCC1 (BAF155) (from UniProt Q92922 1-1105)”: the binding result is “binds”.
